Source: US20210353585A1, “METHODS AND COMPOSITIONS FOR TREATING LAMINOPATHIES AFFECTING SKELETAL OR CARDIAC MUSCLE” (CORNELL UNIVERSITY, priority 2018, published 2021)
At least one structure is not confirmed: it was looked up by name or label, or the drawing left a doubt.

Tests used:
[1] = test system: Lmna KO and wild-type myotubes; experiment: Myotube contraction under nifedipine; type: cell-based, mouse; details: nifedipine 5 μM
Lmna KO myofibers = experiment: Quantification of myonuclei with chromatin protrusions; type: cell-based, mouse; details: nifedipine 5 μM starting day 4, read day 7, vs DMSO
Protocol: Pharmacological treatments. For preliminary experiments, myoblasts were differentiated using the standard protocol and treated with pharmacological treatments starting at day 5 of differentiation. For chromatin protrusion studies, paclitaxel was administered to differentiated myotubes in two 24 hours bursts at day 4 and day 6-post differentiation with a 24 hour recovery in between. Myotubes were then fixed in 4% PFA at day 7 and stained with anti-lamin B and DAPI in order to quantify the percentage of myonuclei with chromatin protrusions. For long term studies using the cGAS reporter, myotubes were treated with 10 nM of paclitaxel starting at day 5 and then media was refreshed every day. […]
Image analysis. Image sequences were analyzed using ZEN (Zeiss), ImageJ, or MATLAB (Mathworks) using only linear adjustments uniformly applied to the entire image region. […] To quantify cleaved caspase-3 (i.e. active) area and myofiber health, maximum intensity protections were generated, which were then blinded to the observer. Cleaved caspase-3 area was calculated by thresholding of the caspase-3 and myosin heavy chain fluorescent signal and expressing the cleaved caspase-3 signal relative to the myosin heavy chain signal. Myofiber contractions were scored based on a minimum of 6 random fields of view per replicate using a blinded analysis according to the scales provided in FIGS. 4A-4B. […]

SMILES: COC(=O)C1=C(C)NC(C)=C(C(=O)OC)C1c1ccccc1[N+](=O)[O-] [nifedipine]
- myotube contraction [1]: effectively abrogated myotube contraction
- frequency of chromatin protrusions (Lmna KO myofibers): did not reduce the frequency of chromatin protrusions
